In US20220390449A1, “NEW S[…] FOR THE LATENT FORM OF TOXOPLASMOSIS” (INSERM (INSTITUT NATIONAL DE LA SANTÉ ET DE LA RECHERCHE …, priority 2019, published 2022):
The name of at least one read-out is uncertain.

Assay: Solubility of rBCLA recombinantly expressed in E. coli
Format: physicochemical
Conditions: 0.2% N-Lauryl Sarkoside
Description: Recombinant expression. Transformation was performed using BL21(DE3)-CodonPlus—RIL chemically competent E. coli (Stratagene) which were incubated on ice with 1 μg of the pet30-(a) Cter-BCLA plasmid for 10 minutes, heat shocked at 42° C. for 45 seconds, pre-incubated 45 min in LB at 37° C. then spread on a LB agar plate containing Kanamycin (Kan) and Chloramphenicol (Chlo) and incubated for 12 h. A single colony was then picked to inoculate a LB/Kan/Chlo 50 ml pre-culture grown for 16 h. 5 ml of grown pre-culture were then used to inoculate 1 L flasks of Terrific Broth medium (Formedium) containing Chlo/Kan. Cultures were grown at 37° C. until reaching an OD600 of 0.5-0.8 then induced by adding 0.7 mM IPTG (VWR) and further incubated at 18° C. ON. After incubation, cells were centrifuged 25 min at 3000 G, the supernatant was discarded and the pellet flash frozen in liquid nitrogen and kept at −80° C.
Lysis. Purification was performed on 3 pellets of 1 L cultures, each resuspended in 50 ml of lysis buffer containing 600 mM NaCl, 50 mM Tris pH 8, 5 mM Beta-mercaptoethanol (BME), 0.2% w/v N-Lauryl Sarkozine and 1 Complete anti protease cocktail (Roche) tab per 50 ml. Lysis was performed using a 10 mini-pulsed sonication (15 sec ON, 30 sec OFF) at 50° amplitude over ice with the lysate never reaching a temperature over 13° C. […]

B1: rBCLA: C-terminal antigenic domain, res 1089-1275 of BCLA (SEQ ID NO:2), expressed in E. coli as recombinant protein (protein)
chain: MIPGVGDKTEASVLDSIENAVQKVLENLLKAAAGELQPAEAEEARLLVADLKAVVDTAEQVRVEGEAFFRASVDLYEAVKNLRDSEEKLRPLTKGELVDVVRQFLATQIFVQDRASAFLRVFERLAELLAAEQMKAVFAMVEEGVSSSERVARVAGELVPMMKKDRERRYGDLVAVTSWFMRRMEHI
modifications: Synthetic C-terminal antigenic domain (res 1089-1275)
  solubilization during the lysis step: can be solubilized
